These are yes or no findings as the source states them, for the method shown. In cells and extracts the contact can be indirect. Some results given as binding are weak or reduced against the parent protein; the word gives no strength. Where a sequence is shown, tags or fusion partners need not be part of it.

By UniProt entry, the sequences of proteins in these tests, tags left out. Where a name states a change or a piece, a line headed by the entry shows the natural chain unless it says otherwise. Chains listed by the source or under a name are the forms on record and can include a tag or linker.
HA-tagged constitutively-activated Rheb(64L) (Q15382, form named): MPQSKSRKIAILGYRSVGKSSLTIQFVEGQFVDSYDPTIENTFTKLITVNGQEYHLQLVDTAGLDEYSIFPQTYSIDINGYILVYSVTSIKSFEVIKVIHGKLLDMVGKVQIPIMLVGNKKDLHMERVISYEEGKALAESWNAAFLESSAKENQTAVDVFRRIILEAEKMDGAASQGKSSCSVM

Experimental findings from publication PMC5085121 are described below.

The assay addresses T1, GFP-tagged RASSF1A (UniProt Q9NS23).
T1 sequence: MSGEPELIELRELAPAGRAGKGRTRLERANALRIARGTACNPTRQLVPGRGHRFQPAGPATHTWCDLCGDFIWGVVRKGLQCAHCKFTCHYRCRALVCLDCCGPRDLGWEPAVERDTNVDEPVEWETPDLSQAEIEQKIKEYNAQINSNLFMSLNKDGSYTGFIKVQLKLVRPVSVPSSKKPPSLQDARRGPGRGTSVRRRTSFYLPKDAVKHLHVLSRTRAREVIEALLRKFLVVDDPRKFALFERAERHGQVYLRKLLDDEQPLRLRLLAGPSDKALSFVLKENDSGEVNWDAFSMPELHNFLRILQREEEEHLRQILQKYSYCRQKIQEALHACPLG
As to the kind of experiment: co-IP; HEK-293T cells co-transfected with HA-Rheb (wild type or 64L) and GFP-RASSF1A, lysed 24 h later in modified RIPA buffer (150mM NaCl, 50mM Tris, pH 7.5, 1% NP-40); precleared lysates immunoprecipitated for GFP (GFP-Trap agarose beads), blotted with anti-HA and anti-GFP.

For “HA-tagged wild type Rheb (from UniProt Q15382 1-184)”, the binding result is “binds weakly”. The entry for “HA-tagged constitutively-activated Rheb(64L) (from UniProt Q15382 1-184)” is “binds”.
